## Results from one PubChem assay

The results are deposited in PubChem (AID1053133; Broad Institute, 2014).

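Vaccinia-infected cells with a two-color viral stage reporter; Venus fluorescence read on a plate reader; the cell line is not named here; timing not stated here. The test concentration is not given here. Percent change in Venus reporter signal; lower (more negative) values mean stronger inhibition of that viral stage.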

Values are in %. The controls that fix the scale are not given here. Common to all entries: measured here: Venus reporter, other viral stage. Part of the compounds only, not a random draw; the main read-out is not listed here.

Cc1ccc(S(=O)(=O)N(C)C[C@H]2Oc3c(NC(=O)Nc4cccc5ccccc45)cccc3C(=O)N([C@@H](C)CO)C[C@@H]2C)cc1 read activity change (Venus) -36.06%. C[C@H](CO)N1C[C@H](C)[C@@H](CN(C)Cc2ccccc2)OCCCC[C@H](C)Oc2ccc(NC(=O)Nc3cccc4ccccc34)cc2C1=O read activity change (Venus) -39.4%. Result for C[C@@H]1CN([C@@H](C)CO)S(=O)(=O)c2ccc(C3=CCCCC3)cc2O[C@H]1CN(C)C(=O)c1ccc(F)cc1 was activity change (Venus) -51%. Result for COc1ccc(-c2ccc3c(c2)[C@H]2[C@H](CCN2C(=O)C2CCCCC2)[C@H](CO)N3C)cc1 was activity change (Venus) -38.3%.

With O=C(Cc1ccccc1)N1CC[C@H]2[C@H](CO)Nc3ccc(C#Cc4cccc(F)c4)cc3[C@H]21 the assay gave activity change (Venus) -42.95%. C[C@H]1CN([C@@H](C)CO)C(=O)Cc2cc(NC(=O)Cc3ccccc3)ccc2O[C@@H]1CN(C)Cc1ccc(Cl)c(Cl)c1 gave activity change (Venus) -52.98%. With O=C(c1cccnc1)N1CC(=O)N2[C@H](CO)[C@@H](c3ccc(C#CCC4CCCC4)cc3)[C@H]2C1 the assay gave activity change (Venus) -56.8%. With O=C(C[C@@H]1CC[C@H]2[C@@H](COC[C@@H](O)CN2S(=O)(=O)c2ccccc2)O1)Nc1ccc(-c2ccccc2)cc1 the assay gave activity change (Venus) -38.24%.

With O=S(=O)(c1ccccc1)N1C[C@@H]2[C@H](c3ccccc31)[C@@H](CO)N2Cc1ccc2c(c1)OCO2 the assay gave activity change (Venus) -28.28%. With COc1cc(CN2[C@@H]3CNC[C@H]2C3c2ccc(-c3ccccc3C)cc2)cc(OC)c1 (some centres not stated) the assay gave activity change (Venus) -32.58%. COc1ccccc1-c1ccc([C@@H]2[C@@H]3CN(S(=O)(=O)c4ccc(-c5ccccc5)cc4)C[C@H]2N3)cc1 read activity change (Venus) -61.82%. Result for C[C@H](CO)N1C[C@H](C)[C@@H](CN(C)Cc2ccccc2F)Oc2ncc(/C=C/c3ccccc3)cc2C1=O was activity change (Venus) -39.67%.

For C[C@@H]1CN([C@@H](C)CO)C(=O)c2cccc(NS(=O)(=O)c3ccc(Cl)cc3)c2O[C@@H]1CN(C)Cc1ccc(-c2ccccc2)cc1 the result was activity change (Venus) -22.58%. For O=C(Cc1cccnc1)N1CCCCN2[C@H](C1)[C@H](c1ccc(/C=C/c3ccccc3)cc1)[C@@H]2CO the result was activity change (Venus) -58.59%. For O=C1CN(S(=O)(=O)Cc2ccccc2)C[C@@H]2[C@@H](c3ccc(C#Cc4ccccc4)cc3)[C@H](CO)N12 the result was activity change (Venus) -40.42%. COc1ccc(CN(C)C[C@@H]2OCCCC[C@H](C)Oc3ccc(NC(=O)Nc4cccc5ccccc45)cc3C(=O)N([C@H](C)CO)C[C@H]2C)cc1 read activity change (Venus) -39.21%.

For Cc1ccccc1-c1ccc2c(c1)O[C@@H](CN(C)C(=O)Nc1ccccc1)[C@@H](C)CN([C@H](C)CO)S2(=O)=O the result was activity change (Venus) -32.31%. Cc1ccc(S(=O)(=O)N(C)C[C@H]2Oc3cc(C#Cc4ccccc4)ccc3S(=O)(=O)N([C@@H](C)CO)C[C@H]2C)cc1 gave activity change (Venus) -32.26%. O=C(C1CCCC1)N1CC(=O)N2[C@H](C1)[C@H](c1ccc(C#Cc3cccc(F)c3)cc1)[C@@H]2CO read activity change (Venus) -78.58%. For OC[C@@H]1[C@@H](c2ccc(C#CC3CCCC3)cc2)[C@@H]2CN(CCC(F)(F)F)CCCCN12 the result was activity change (Venus) -67.22%.

O=C(C1CCCCC1)N1CC[C@@H]2[C@H]1c1cc(C#Cc3ccc(F)cc3)ccc1N[C@@H]2CO read activity change (Venus) -34.1%. O=C(C1CC1)N1C[C@H]2[C@@H](c3ccccc31)[C@H](CO)N2C(=O)Cc1ccccn1 gave activity change (Venus) -16.49%. With C[C@@H]1CN([C@H](C)CO)C(=O)c2cccc(NC(=O)Nc3ccc(C(F)(F)F)cc3)c2O[C@@H]1CN(C)S(=O)(=O)c1ccc(F)cc1 the assay gave activity change (Venus) -51.84%. For COc1ccc(CN(C)C[C@H]2OCCCC[C@H](C)Oc3ccc(NC(=O)c4ccccc4)cc3C(=O)N([C@@H](C)CO)C[C@@H]2C)cc1 the result was activity change (Venus) -45.83%.

Result for C[C@H]1CN([C@@H](C)CO)C(=O)c2cccc(NC(=O)Nc3ccc(F)cc3)c2O[C@H]1CN(C)C was activity change (Venus) -57.04%. Result for C[C@H]1CN([C@@H](C)CO)S(=O)(=O)c2ccc(-c3ccc(C#N)cc3)cc2O[C@@H]1CN(C)Cc1cccc(F)c1 was activity change (Venus) -34.95%. C[C@H](CO)N1C[C@H](C)[C@H](CN(C)C(=O)NC2CCCCC2)OCCCC[C@H](C)Oc2ccc(NS(=O)(=O)c3ccc(Cl)cc3)cc2C1=O read activity change (Venus) -53.15%. With CC(C)CC#Cc1ccc2c(c1)O[C@H](CN(C)C(=O)Cc1ccccc1)[C@@H](C)CN([C@@H](C)CO)S2(=O)=O the assay gave activity change (Venus) -49.24%.

2 of the entries, repeated:

| compound | activity change (Venus) (%) |
|---|---|
| `CC(C)CC#Cc1ccc2c(c1)O[C@H](CN(C)C(=O)Cc1ccccc1)[C@@H](C)CN([C@@H](C)CO)S2(=O)=O` | -49.24 |
| `O=C(C1CC1)N1C[C@H]2[C@@H](c3ccccc31)[C@H](CO)N2C(=O)Cc1ccccn1` | -16.49 |